The record followed here is publication PMC6697806.

Test [1] has as its target T1, 1.1C-Tmem203 (UniProt Q8R235).
T1 sequence: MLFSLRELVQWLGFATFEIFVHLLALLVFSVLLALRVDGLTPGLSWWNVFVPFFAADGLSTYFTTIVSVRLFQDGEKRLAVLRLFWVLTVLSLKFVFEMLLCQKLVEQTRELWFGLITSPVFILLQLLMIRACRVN
Nature of the test: split reporter; Renilla fragment PCA (1.1 on TMEM203, 2.1 on STING) in HEK293T cells with an increasing dose of STIM1 expression vector; relative luciferase activity 24 h posttransfection.

The target of test [2] is T1, 1.1C-Tmem203. Nature of the test: split reporter; Renilla fragment PCA (NanoBit 1.1 small and 2.1 large fragments), HEK293T cells cotransfected, Nano-Glo live cell luciferase assay 24 h posttransfection; also after DMXAA (50 µg/mL; association enhanced) or 2′3′-cGAMP (10 µg/mL; complex reduced with time).
Test [3] concerns the target T2, TMEM203 V51X in the Renilla reporter system (UniProt Q8R235).
T2 sequence: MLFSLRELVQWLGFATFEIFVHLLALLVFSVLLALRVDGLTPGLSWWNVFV
The description is as above.

The next test has as its target T3, Flag-Tmem203 (UniProt Q8R235).
T3 sequence: T1 sequence
Nature of the test: co-IP; HEK293T cells transfected with the tagged constructs; complexes immunoprecipitated with anti-FLAG-coated beads and blotted for Myc or HA and FLAG.

In test [4] the target is T4, TMEM203 with a C-terminal Venus PCA tag (UniProt Q8R235).
T4 sequence: T1 sequence
Nature of the test: split reporter; Venus YFP fragment complementation assay (PCA; V1 and V2 fragments), HEK293T cells cotransfected, Venus fluorescence detected by flow cytometry (mean fluorescence intensity).

The target of test [5] is T5, Tmem203 tagged at its N terminus with the V1 fragment of Venus yellow fluorescent protein (UniProt Q8R235).
T5 sequence: T1 sequence
Put plainly: split reporter; Venus YFP fragment complementation assay (PCA; V1 and V2 fragments), HeLa cells cotransfected, Venus fluorescence visualized by microscopy.

For test [6], the target named is T5, Tmem203 tagged at its N terminus with the V1 fragment of Venus yellow fluorescent protein. Nature of the test: split reporter; Venus YFP fragment complementation assay (PCA; V1 and V2 fragments), HEK293T cells cotransfected, Venus fluorescence detected by flow cytometry (mean fluorescence intensity).
Test [7] concerns the target T6, V2-tagged Tmem203 (UniProt Q8R235).
T6 sequence: T1 sequence
The test is described as above.

For another test, the target named is T7, V2_V51X-Tmem203 (UniProt Q8R235).
T7 sequence: T2 sequence
Put plainly: split reporter; Venus YFP fragment complementation assay (PCA; V1 and V2 fragments), HeLa cells cotransfected, Venus fluorescence visualized by microscopy.

Test [8] has as its target T6, V2-tagged Tmem203. Described as above.

Results are given in words; binding and its absence hold for the method and conditions named. In cells and extracts the contact can be indirect. Binding calls can cover weak binding; strength is not graded here. For part of these data: Tags and fused reporters may be left off the sequences shown.

Turning to 2.1N-Sting, the binding entry (with 1.1C-Tmem203 [1]; with 1.1C-Tmem203 [2]; in test [3]) was “binds” each time.

Regarding HA-Sting WT, the binding result with Flag-Tmem203 is “binds”.

Take HA-Sting ΔCBD (domain or fragment): the binding entry with Flag-Tmem203 is on record as “binds”.

Consider HA-Sting ΔCTT (domain or fragment), for which the binding entry with Flag-Tmem203 is recorded as “binds”.

Consider HA-Sting ΔTM (domain or fragment), for which the binding result with Flag-Tmem203 is “binds weakly”.

Consider Myc-Sting, for which, in the test with Flag-Tmem203, the binding result is listed as “binds”.

Regarding STING with a C-terminal Venus PCA tag, in test [4], the binding result is given as “binds”.

“Sting tagged at its N terminus with the V2 Venus fragment”: the binding entry in [5] and in [6] was “binds” in each case.

Regarding “V1 Sting ΔCTT (344A truncation) (domain or fragment)”, the binding entry with V2-tagged Tmem203 [7] is reported as “binds”.

Take V1_Sting WT: the binding result with V2_V51X-Tmem203, in the test with V2-tagged Tmem203 [8] and with V2-tagged Tmem203 [7] was “binds” in each case.
